Measurements as given in patent US10189900B2, “Method for screening for autophagy activator or inhibitor” (KOREA FOOD RESEARCH INSTITUTE, priority 2014, dated 2019).
At least one compound was matched to its structure with a doubt left.

Tested on: Ser30 of Beclin 1
Assay: Beclin 1 Ser30 phosphorylation after compound treatment (immunoprecipitation of endogenous Beclin 1, phospho-Ser30 antibody)
Type: cell-based
Conditions: HEK293T cells treated for 0, 15, 30, 60 and 120 min; endogenous Beclin 1 isolated by immunoprecipitation; rabbit phospho-Ser30 antibody
Method: For co-immunoprecipitation, cell extracts were prepared in a buffer containing 40 mM HEPES, pH 7.4, 120 mM NaCl, 1 mM EDTA, 50 mM NaF, 1.5 mM Na3VO4, 10 mM Mb-glycerophosphate, 1% triton X-100, and protease inhibitor (Roche). Immunoprecipitated proteins were washed four times with a lysis buffer, and loaded onto 8% Tris-glycine gels. The resultant proteins were transferred onto polyvinylidene difluoride (PVDF) membranes (Bio-Rad, USA), and detected with western blotting detection reagents (Perkin Elmer, USA).
(§1) HEK293T cells were treated with rapamycin for predetermined periods of time (0, 15, 30, 60, and 120 min). Endogenous Beclin 1 was isolated by immunoprecipitation. The phosphorylation of Ser30 was analyzed using rabbit antibodies developed in the present invention. It was verified that Ser30 of Beclin 1 was phosphorylated by rapamycin (FIG. 5). Rapamycin increases the activity of ULK1.
as §1, with “torin” for “rapamycin”, “6).” for “5). Rapamycin increases the activity of ULK1.”

## CO[C@H]1C[C@@H]2CC[C@@H](C)[C@@](O)(O2)C(=O)C(=O)N2CCCC[C@H]2C(=O)O[C@H]([C@H](C)C[C@@H]2CC[C@@H](O)[C@H](OC)C2)CC(=O)[C@H](C)/C=C(\C)[C@@H](O)[C@@H](OC)C(=O)[C@H](C)C[C@H](C)/C=C/C=C/C=C/1C [rapamycin]
  phosphorylation of Ser30 of Beclin 1: phosphorylated
